# Values quoted from earlier work, collected in US4794125A, “Compounds having an immunizing activity” (CL Pharma AG, priority 1984, dated 1988).
# At least one structure is not confirmed: it was looked up by name or label, or the drawing left a doubt.
# Conditions: Austrian Pat. No. 351,521; cited from earlier work
row,Structure (SMILES),antiviral properties
1,CN(C)CC(=O)Nc1ccc2c(c1)C(=O)c1ccc(NC(=O)CN(C)C)cc1C2=O [bis-dimethylamino-acetylamino-anthraquinone],have antiviral properties
2,O=C(CN1CCCCCC1)Nc1ccc2c(c1)C(=O)c1ccc(NC(=O)CN3CCCCCC3)cc1C2=O [bis-hexamethyleneimino-acetylamino-anthraquinone],have antiviral properties
